According to PMC4868535, “A G-protein activation cascade from Arl13B to Arl3 and implications for ciliary targeting of lipidated proteins” (eLife, 2015):
These are yes or no findings as the source states them, for the method shown. For some of these results: In cells and extracts the contact can be indirect. Some results given as binding are weak or reduced against the parent protein; the word gives no strength.

The chains behind the UniProt entries cited, without tags or fusion partners. Where a name states a change or a piece, a line headed by the entry shows the natural chain unless it says otherwise. A line that says so, or that is headed by a name, gives the form on record, which may keep a tag or linker. Residues count along the entry.
Arl2△N^D128N (murine Arl2 residues 17–184, D128N) (Q9D0J4, form named): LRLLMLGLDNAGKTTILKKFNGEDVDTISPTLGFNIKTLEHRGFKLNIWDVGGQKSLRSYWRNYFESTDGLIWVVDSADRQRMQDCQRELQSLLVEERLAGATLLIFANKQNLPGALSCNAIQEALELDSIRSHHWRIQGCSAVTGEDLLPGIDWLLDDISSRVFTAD
UniProt Q9WUL7: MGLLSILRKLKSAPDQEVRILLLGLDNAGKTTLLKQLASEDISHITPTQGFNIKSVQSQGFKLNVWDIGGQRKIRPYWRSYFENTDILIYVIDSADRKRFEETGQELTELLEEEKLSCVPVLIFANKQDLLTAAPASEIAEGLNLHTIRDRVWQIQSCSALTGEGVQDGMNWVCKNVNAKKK
Arl3△N^D129N (murine Arl3 residues 17–182, D129N) (Q9WUL7, form named): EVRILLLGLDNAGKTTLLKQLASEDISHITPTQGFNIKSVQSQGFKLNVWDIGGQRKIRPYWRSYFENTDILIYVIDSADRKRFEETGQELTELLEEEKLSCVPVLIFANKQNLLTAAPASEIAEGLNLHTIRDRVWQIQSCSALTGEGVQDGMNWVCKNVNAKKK
UniProt P36405: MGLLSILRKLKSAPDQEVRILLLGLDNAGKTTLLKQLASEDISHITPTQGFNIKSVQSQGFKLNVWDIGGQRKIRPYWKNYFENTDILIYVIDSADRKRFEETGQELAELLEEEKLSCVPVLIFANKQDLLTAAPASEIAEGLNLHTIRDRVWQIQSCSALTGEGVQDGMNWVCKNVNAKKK
UniProt Q640N2, residues 1-270: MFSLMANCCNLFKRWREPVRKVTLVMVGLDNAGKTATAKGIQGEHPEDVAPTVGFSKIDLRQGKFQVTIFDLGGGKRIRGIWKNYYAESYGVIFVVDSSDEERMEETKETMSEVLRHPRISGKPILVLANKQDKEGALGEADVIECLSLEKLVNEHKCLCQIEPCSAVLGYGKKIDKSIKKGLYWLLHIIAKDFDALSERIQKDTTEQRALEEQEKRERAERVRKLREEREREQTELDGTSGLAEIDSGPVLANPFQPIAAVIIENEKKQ

How the values were obtained:
GST-PDE6δ = GST-PDE6δ (UniProt O43924); assay: pull-down; 50 µg GST-PDE6δ on 50 µl glutathione agarose, cleared lysates of HEK293 or IMCD3 cells (with or without overexpressed Arl13B-GFP, serum withdrawn 30 hr), 45 min at 4°C; immunoblot with anti-Arl3 or anti-Flag; only the target purified
[1] = molecular target: T1, Arl6△N^D133N (murine Arl6 residues 16–186, D133N) (mouse) (UniProt O88848); assay: two-hybrid; directed 1:1 test of pBD baits with pAD preys; mated cells on -Leu -Trp, high stringency plates (-Leu -Trp -His -Ade) and β-galactosidase filter assay
T1 sequence: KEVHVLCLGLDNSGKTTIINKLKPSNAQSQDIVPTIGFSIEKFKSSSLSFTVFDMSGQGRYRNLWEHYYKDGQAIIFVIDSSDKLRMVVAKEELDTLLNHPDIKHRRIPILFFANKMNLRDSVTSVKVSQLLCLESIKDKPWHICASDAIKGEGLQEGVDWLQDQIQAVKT

[2] = molecular target: Arl2△N^D128N (murine Arl2 residues 17–184, D128N) (mouse) (UniProt Q9D0J4); assay: as above
[3] = molecular target: Arl3△N^D129N (murine Arl3 residues 17–182, D129N) (mouse) (UniProt Q9WUL7); assay: as above
[4] = molecular target: Arl3△N^D129N (murine Arl3 residues 17–182, D129N) (mouse) (UniProt Q9WUL7); assay: two-hybrid; library screens: mouse retina cDNA library in pGADT7 (S. cerevisiae Y187) against pBD-Gal4 baits (S. cerevisiae AH109); growth on selective media

Row | Substance | binding (GST-PDE6δ) | binding [1] | binding [2] | binding [3] | binding [4]
1 | endogenous Arl3 (HEK293) (from UniProt P36405 1-182) | binds | – | – | – | –
2 | endogenous Arl3 (IMCD3) (from UniProt Q9WUL7 1-182) | binds | – | – | – | –
3 | Arl3-Flag (from UniProt Q9WUL7 1-182) | binds | – | – | – | –
4 | Arl13B (residues 1–270) (from UniProt Q640N2 1-270) (domain or fragment) | – | no binding | no binding | binds | binds
